Test [1] concerns the target 2XMBP-tagged BRCA2 N-terminal domain (human) (UniProt P51587). Put plainly: pull-down.
For test [2], the target named is 2XMBP-tagged BRCA2 BRC1-8 repeats (human) (UniProt P51587). Put plainly: pull-down.
Test [3] concerns the target 2XMBP-tagged BRCA2 BRC7-8 (human) (UniProt P51587). Nature of the test: pull-down.
For test [4], the target named is 2XMBP-tagged BRCA2 BRC5-6 (human) (UniProt P51587). Put plainly: pull-down.
In test [5] the target is 2XMBP-tagged BRCA2 BRC1-2 (human) (UniProt P51587). Nature of the test: pull-down.
In test [6] the target is 2XMBP-tagged BRCA2 BRC5-8 (human) (UniProt P51587). Nature of the test: pull-down.
Test [7] addresses 2XMBP-tagged BRCA2 BRC1-4 (human) (UniProt P51587). Put plainly: pull-down.
Test [8] addresses GAL4 BD-BRC1-2 (HA-tagged BRC1-2 of BRCA2 fused to the GAL4 DNA binding domain) (human) (UniProt P51587). Nature of the test: two-hybrid.
The target is the same in test [9]. Put plainly: two-hybrid. This is another data set of the same source.
Test [10] shares this target. Put plainly: two-hybrid. This is another data set of the same source.
The target is the same in test [11]. Put plainly: two-hybrid. This is another data set of the same source.

By UniProt entry, the sequences of proteins in these tests, tags left out. Where a name states a change or a piece, a line headed by the entry shows the natural chain unless it says otherwise.
UniProt P51587: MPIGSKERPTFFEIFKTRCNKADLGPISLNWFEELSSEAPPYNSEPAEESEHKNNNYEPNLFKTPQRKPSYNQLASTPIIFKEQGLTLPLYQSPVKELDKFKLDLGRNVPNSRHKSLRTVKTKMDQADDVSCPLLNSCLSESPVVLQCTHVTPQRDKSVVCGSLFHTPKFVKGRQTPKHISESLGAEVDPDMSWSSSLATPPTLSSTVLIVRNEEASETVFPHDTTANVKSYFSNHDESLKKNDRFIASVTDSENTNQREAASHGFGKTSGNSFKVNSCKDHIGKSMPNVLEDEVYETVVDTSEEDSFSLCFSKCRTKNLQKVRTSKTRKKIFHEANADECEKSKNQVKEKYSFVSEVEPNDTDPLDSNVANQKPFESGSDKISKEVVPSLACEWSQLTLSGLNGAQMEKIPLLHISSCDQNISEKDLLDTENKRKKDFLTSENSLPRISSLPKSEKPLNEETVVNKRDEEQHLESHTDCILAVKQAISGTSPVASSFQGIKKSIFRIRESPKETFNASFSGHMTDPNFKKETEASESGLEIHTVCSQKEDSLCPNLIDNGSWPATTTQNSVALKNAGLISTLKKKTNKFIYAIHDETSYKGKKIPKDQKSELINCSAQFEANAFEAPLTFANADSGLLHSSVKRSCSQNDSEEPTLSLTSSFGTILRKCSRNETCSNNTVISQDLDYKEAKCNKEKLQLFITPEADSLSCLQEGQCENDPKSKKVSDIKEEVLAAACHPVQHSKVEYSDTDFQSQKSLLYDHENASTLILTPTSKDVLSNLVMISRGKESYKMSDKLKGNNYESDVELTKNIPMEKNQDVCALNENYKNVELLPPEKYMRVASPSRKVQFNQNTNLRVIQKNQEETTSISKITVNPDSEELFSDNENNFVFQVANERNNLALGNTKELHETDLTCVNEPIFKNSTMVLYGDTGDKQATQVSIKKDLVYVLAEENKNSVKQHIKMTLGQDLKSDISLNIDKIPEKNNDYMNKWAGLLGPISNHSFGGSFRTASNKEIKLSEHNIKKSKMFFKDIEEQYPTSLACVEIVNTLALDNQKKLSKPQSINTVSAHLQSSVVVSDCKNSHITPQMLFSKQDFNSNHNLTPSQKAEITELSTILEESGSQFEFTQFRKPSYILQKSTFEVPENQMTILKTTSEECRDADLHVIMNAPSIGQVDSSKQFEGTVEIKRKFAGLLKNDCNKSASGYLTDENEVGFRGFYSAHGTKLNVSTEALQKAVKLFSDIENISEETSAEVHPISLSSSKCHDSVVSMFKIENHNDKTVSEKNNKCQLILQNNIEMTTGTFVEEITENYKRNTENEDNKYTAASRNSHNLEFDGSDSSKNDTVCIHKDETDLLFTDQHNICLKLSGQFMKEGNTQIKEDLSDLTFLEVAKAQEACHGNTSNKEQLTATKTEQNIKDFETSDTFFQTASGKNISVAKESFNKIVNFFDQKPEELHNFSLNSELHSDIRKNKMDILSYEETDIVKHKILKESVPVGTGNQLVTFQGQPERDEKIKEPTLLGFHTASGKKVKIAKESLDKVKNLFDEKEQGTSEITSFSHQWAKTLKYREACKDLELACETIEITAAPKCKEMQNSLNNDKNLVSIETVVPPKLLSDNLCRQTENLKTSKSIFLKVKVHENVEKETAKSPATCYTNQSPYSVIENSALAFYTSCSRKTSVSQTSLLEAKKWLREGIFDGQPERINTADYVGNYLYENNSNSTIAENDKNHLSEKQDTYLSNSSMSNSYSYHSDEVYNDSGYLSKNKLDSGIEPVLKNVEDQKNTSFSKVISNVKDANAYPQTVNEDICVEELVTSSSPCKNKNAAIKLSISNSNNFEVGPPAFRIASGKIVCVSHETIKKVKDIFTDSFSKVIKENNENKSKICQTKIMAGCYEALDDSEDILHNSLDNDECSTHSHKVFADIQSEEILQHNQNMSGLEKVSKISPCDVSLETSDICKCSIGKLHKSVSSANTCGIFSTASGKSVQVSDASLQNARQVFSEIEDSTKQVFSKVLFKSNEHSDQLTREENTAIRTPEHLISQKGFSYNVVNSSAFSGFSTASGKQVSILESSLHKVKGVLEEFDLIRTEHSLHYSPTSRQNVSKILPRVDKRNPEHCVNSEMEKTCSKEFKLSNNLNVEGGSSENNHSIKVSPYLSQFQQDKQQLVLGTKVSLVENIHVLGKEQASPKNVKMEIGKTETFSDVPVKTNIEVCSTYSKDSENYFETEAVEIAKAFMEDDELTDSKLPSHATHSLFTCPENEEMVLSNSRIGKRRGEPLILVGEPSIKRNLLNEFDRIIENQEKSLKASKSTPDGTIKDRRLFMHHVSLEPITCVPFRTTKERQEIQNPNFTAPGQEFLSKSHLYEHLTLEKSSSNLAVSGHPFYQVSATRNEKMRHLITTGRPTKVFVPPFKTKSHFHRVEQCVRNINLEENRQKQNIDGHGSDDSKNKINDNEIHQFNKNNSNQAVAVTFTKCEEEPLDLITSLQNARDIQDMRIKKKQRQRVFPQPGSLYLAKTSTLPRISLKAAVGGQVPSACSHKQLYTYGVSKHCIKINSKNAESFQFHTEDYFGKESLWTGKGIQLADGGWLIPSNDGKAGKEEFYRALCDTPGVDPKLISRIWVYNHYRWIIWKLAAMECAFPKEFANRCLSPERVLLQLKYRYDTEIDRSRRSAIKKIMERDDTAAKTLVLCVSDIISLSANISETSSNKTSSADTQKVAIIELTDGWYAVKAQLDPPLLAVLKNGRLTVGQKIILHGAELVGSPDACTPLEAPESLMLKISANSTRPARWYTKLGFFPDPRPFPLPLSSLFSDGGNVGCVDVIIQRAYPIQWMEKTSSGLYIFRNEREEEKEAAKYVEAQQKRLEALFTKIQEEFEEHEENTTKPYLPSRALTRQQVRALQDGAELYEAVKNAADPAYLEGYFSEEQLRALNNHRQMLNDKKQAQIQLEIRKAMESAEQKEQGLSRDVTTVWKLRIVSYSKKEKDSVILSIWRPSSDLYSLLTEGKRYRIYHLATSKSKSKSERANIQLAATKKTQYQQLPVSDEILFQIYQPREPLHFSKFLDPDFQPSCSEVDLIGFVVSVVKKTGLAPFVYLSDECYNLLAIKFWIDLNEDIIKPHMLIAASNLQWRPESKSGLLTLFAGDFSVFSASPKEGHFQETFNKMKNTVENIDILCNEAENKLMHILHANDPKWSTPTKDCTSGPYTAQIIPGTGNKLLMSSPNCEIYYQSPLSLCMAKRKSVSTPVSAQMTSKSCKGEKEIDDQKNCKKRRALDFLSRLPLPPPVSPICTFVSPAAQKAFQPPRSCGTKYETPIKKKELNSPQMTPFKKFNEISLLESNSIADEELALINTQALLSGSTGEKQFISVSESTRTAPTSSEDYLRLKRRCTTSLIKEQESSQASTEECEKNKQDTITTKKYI

Like-named read-outs stand apart in the source and are kept apart here. No constants are given. Whether binding was seen depends on the method and setting. A result given as binding can be weak or reduced; the word gives no strength. Where a sequence is shown, tags or fusion partners need not be part of it. For some assays here: In cells and extracts the contact can be indirect.

B1: HA-tagged RAD51C (protein, UniProt O43502 1-376)
chain: MRGKTFRFEMQRDLVSFPLSPAVRVKLVSAGFQTAEELLEVKPSELSKEVGISKAEALETLQIIRRECLTNKPRYAGTSESHKKCTALELLEQEHTQGFIITFCSALDDILGGGVPLMKTTEICGAPGVGKTQLCMQLAVDVQIPECFGGVAGEAVFIDTEGSFMVDRVVDLATACIQHLQLIAEKHKGEEHRKALEDFTLDNILSHIYYFRCRDYTELLAQVYLLPDFLSEHSKVRLVIVDGIAFPFRHDLDDLSLRTRLLNGLAQQMISLANNHRLAVILTNQMTTKIDRNQALLVPALGESWGHAATIRLIFHWDRKQRLATLYKSPSQKECTVLFQIKPQGFRDTVVTSACSLQTEGSLSTRKRSRDPEEEL
Regarding B1, the binding result in test [1] and in test [2] was “no binding” throughout.

B2: HA-tagged RAD51D (protein, UniProt O75771 1-328)
chain: MGVLRVGLCPGLTEEMIQLLRSHRIKTVVDLVSADLEEVAQKCGLSYKALVALRRVLLAQFSAFPVNGADLYEELKTSTAILSTGIGSLDKLLDAGLYTGEVTEIVGGPGSGKTQVCLCMAANVAHGLQQNVLYVDSNGGLTASRLLQLLQAKTQDEEEQAEALRRIQVVHAFDIFQMLDVLQELRGTVAQQVTGSSGTVKVVVVDSVTAVVSPLLGGQQREGLALMMQLARELKTLARDLGMAVVVTNHITRDRDSGRLKPALGRSWSFVPSTRILLDTIEGAGASGGRRMACLAKSSRQPTGFQEMVDIGTWGTSEQSATLQGDQT
Consider B2, for which the binding entry is given as “binds” in test [3]; “binds” in [4]; “binds” in test [5]; “binds” in test [6]; “binds weakly” in test [1]; “binds” in test [7]. The binding result in test [2] is on record as “binds”.

B3: GAL4 AD-RAD51D (protein, UniProt O75771 1-328)
chain: B2 chain
As for B3, the binding result in test [8] and in test [9] was “binds” throughout.

B4: HA-tagged XRCC3 (protein, UniProt O43542 1-346)
chain: MDLDLLDLNPRIIAAIKKAKLKSVKEVLHFSGPDLKRLTNLSSPEVWHLLRTASLHLRGSSILTALQLHQQKERFPTQHQRLSLGCPVLDALLRGGLPLDGITELAGRSSAGKTQLALQLCLAVQFPRQHGGLEAGAVYICTEDAFPHKRLQQLMAQQPRLRTDVPGELLQKLRFGSQIFIEHVADVDTLLECVNKKVPVLLSRGMARLVVIDSVAAPFRCEFDSQASAPRARHLQSLGATLRELSSAFQSPVLCINQVTEAMEEQGAAHGPLGFWDERVSPALGITWANQLLVRLLADRLREEEAALGCPARTLRVLSAPHLPPSSCSYTISAEGVRGTPGTQSH
Take B4: the binding entry is listed as “binds” in test [3]; “binds” in test [4]; “binds” in [5]; “binds” in test [6]; “no binding” in test [1]; “binds” in test [7]. The binding result in test [2] is “binds”.

B5: GAL4 AD-XRCC3 (protein, UniProt O43542 1-346)
chain: B4 chain
Turning to B5, the binding result in test [10] and in [9] was “binds” in each case.

B6: HA-tagged XRCC2 (protein, UniProt O43543 1-280)
chain: MCSAFHRAESGTELLARLEGRSSLKEIEPNLFADEDSPVHGDILEFHGPEGTGKTEMLYHLTARCILPKSEGGLEVEVLFIDTDYHFDMLRLVTILEHRLSQSSEEIIKYCLGRFFLVYCSSSTHLLLTLYSLESMFCSHPSLCLLILDSLSAFYWIDRVNGGESVNLQESTLRKCSQCLEKLVNDYRLVLFATTQTIMQKASSSSEEPSHASRRLCDVDIDYRPYLCKAWQQLVKHRMFFSKQDDSQSSNQFSLVSRCLKSNSLKKHFFIIGESGVEFC
On to B6, for which the binding result was “binds” in [3]; “binds” in test [4]; “binds” in [5]; “binds” in [6]; “binds weakly” in [1]; “binds” in [7]. In addition, the binding result in test [2] is on record as “binds”.

B7: GAL4 AD-XRCC2 (protein, UniProt O43543 1-280)
chain: B6 chain
Regarding B7, the binding entry in test [11] and in test [9] was “binds” in each case.

These data come from publication doi:10.1101/2024.10.10.617680.
